Test [1] concerns the target T1, SARS‐CoV‐2 Nsp15 (Severe acute respiratory syndrome coronavirus 2, UniProt P0DTD1). In words: biochemical.
Test [2] addresses T1, SARS‐CoV‐2 Nsp15. The test can be described thus: biochemical. The source holds these as a separate data set.

Structures are written as SMILES. Where two headings read alike, the source gives them in different places.

Turning to `COc1cc(OC)cc(N(CCNC(C)C)c2ccc3ncc(-c4cnn(C)c4)nc3c2)c1` [Erdafitinib], the IC50 in test [1] (IC50 + DTT (μM) (CI in μM)) was 3.2 µM; in test [1] (IC50 +DTT (µM)) it was 3.15 µM; in test [2] (IC50 + L‐Cys (μM) (CI in μM)), 4.3 µM; in test [2] (IC50 +L-Cys (µM)), 4.28 µM. In addition, the inhibition at 10 µM came out at 66.6% in test [1] (hit confirmation, 10 µM, DTT buffer, read-out: HC inhibition % +DTT 10 µM); 57.2% in test [1] (primary screen, 10 µM (Table S1), read-out: PS Inhibition % 10 µM); 57.2% in test [1] (primary screen, 10 μM compound, 1 mM DTT buffer, normalized to 50 μM Congo red (100%) and DMSO (0%), read-out: PS inhibition % 10 μM (single point measurement)); 68.2% in test [2] (10 µM, L-cysteine buffer, read-out: Inhibition % +L-Cys 10 µM).
